Measurements reported in PubChem BioAssay AID743454 (Peter MacCallum Cancer Centre, 2014)

Assay: 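Genes whose loss kills vorinostat-resistant colon cancer cells under vorinostat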 (primary screen)
Cell system: human HCT116-VR colon cancer cells, selected for vorinostat resistance
Reagents: siRNA pool against human genes, 40 nM siRNA pool
Duration: vorinostat for 24 h, read-out about 72 h after transfection
Conditions: vorinostat at 2.5 µM final
Measurement: 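Cell viability by CellTiter-Fluor and caspase 3/7 activity by luminescence, each scaled to mock wells per plate, duplicates averaged, then robust z-scored over all plates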
Reading the numbers: viability robust z-score: higher = more viable cells than screen typical; caspase robust z-score: higher = more caspase 3/7 activity than screen typical
Call rule: 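Hits are knock-downs in viability class RV1/RV2 or caspase class CA1/CA2, excluding ones that killed cells in the no-drug cell-count arm; hits then retested with single siRNAs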
In all, the deposit lists about 18,000 reagents; this is a random part of them. In the full data, 450 (2.5%) were called active. 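Single biological run; no consistent viability z cut-off exists, so the class columns, not z-scores, define the calls.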

target gene	viability hit class	caspase hit class	viability robust z-score	caspase robust z-score	activity call
MECP2 (methyl-CpG binding protein 2)	no change	no change	0.04	0.21	inactive
RNF7 (ring finger protein 7)	no change	no change	1.39	1.26	inactive
PKP4 (plakophilin 4)	no change	no change	-1.09	-1.31	inactive
GPR75 (G protein-coupled receptor 75)	no change	no change	-1.26	1.38	inactive
HLA-E (major histocompatibility complex, class I, E)	no change	no change	-1.84	2.83	inactive
ZEB2 (zinc finger E-box binding homeobox 2)	no change	no change	-1.07	2.53	inactive
SLC33A2	no change	no change	0.02	1.34	inactive
SHISA3 (shisa family member 3)	no change	no change	-0.68	-0.38	inactive
MTMR2 (myotubularin related protein 2)	no change	no change	-0.36	0.37	inactive
ZSCAN16 (zinc finger and SCAN domain containing 16)	no change	no change	0.73	-0.22	inactive
LRRC73 (leucine rich repeat containing 73)	no change	no change	0.6	-0.75	inactive
IGDCC3 (immunoglobulin superfamily DCC subclass member 3)	no change	no change	-1.84	2.02	inactive
TRIM72 (tripartite motif containing 72)	no change	no change	-1.19	2.98	inactive
VPS33A (VPS33A core subunit of CORVET and HOPS complexes)	no change	no change	1.14	-0.42	inactive
COPS9 (COP9 signalosome subunit 9)	no change	no change	0.01	0.76	inactive
FGF18 (fibroblast growth factor 18)	no change	no change	0.19	0.44	inactive
NADK (NAD kinase)	no change	no change	0.33	-0.49	inactive
PIP4P2 (phosphatidylinositol-4,5-bisphosphate 4-phosphatase 2)	no change	no change	-1.21	1.2	inactive
PPP1R14A (protein phosphatase 1 regulatory inhibitor subunit 14A)	no change	no change	0.22	-1.08	inactive
CCT2 (chaperonin containing TCP1 subunit 2)	no change	no change	-0.52	1.1	inactive
RPUSD2 (RNA pseudouridine synthase domain containing 2)	no change	no change	1.62	-1	inactive
SUN1 (Sad1 and UNC84 domain containing 1)	no change	no change	-0.59	-1.38	inactive
LINC00207 (long independently transcribed non-coding RNA 207)	no change	no change	-1.28	-0.72	inactive
BACH2 (BACH transcriptional regulator 2)	no change	no change	-1.58	0.57	inactive
TOLLIP (toll interacting protein)	no change	no change	-0.42	-0.75	inactive
RBM25 (RNA binding motif protein 25)	no change	no change	-1.26	-1.23	inactive
FAM133A (family with sequence similarity 133 member A)	no change	no change	0.21	-1.02	inactive
OR5W2 (olfactory receptor family 5 subfamily W member 2)	no change	no change	0.32	1.92	inactive
COPS4 (COP9 signalosome subunit 4)	no change	no change	0.9	0.16	inactive
OR10A2 (olfactory receptor family 10 subfamily A member 2)	no change	no change	-2.23	1.43	inactive
IGFL2 (IGF like family member 2)	no change	no change	0.37	3.37	inactive
PGGHG (protein-glucosylgalactosylhydroxylysine glucosidase)	no change	no change	-0.74	-0.12	inactive
OR2T6 (olfactory receptor family 2 subfamily T member 6)	no change	no change	0.99	-0.28	inactive
HAUS7 (HAUS augmin like complex subunit 7)	no change	no change	-0.22	0.96	inactive
UBE2N (ubiquitin conjugating enzyme E2 N)	no change	no change	-1.75	2.67	inactive
C1orf216 (chromosome 1 open reading frame 216)	no change	no change	-1.06	2.45	inactive
ZNF423 (zinc finger protein 423)	no change	no change	0.26	-0.68	inactive
ZC3H4 (zinc finger CCCH-type containing 4)	no change	no change	0.08	-0.96	inactive
SH2B1 (SH2B adaptor protein 1)	no change	no change	0.12	1.62	inactive
GSS (glutathione synthetase)	no change	no change	-0.78	1.51	inactive
AGMAT (agmatinase (putative))	no change	no change	1.02	-0.24	inactive
TRIM48 (tripartite motif containing 48)	no change	no change	0.7	0.3	inactive
KLF1 (KLF transcription factor 1)	no change	no change	-0.29	-0.3	inactive
DNAJC11 (DnaJ heat shock protein family (Hsp40) member C11)	no change	no change	-1.62	-0.08	inactive
DRC3 (dynein regulatory complex subunit 3)	no change	no change	-0.82	3.08	inactive
PAFAH2 (platelet activating factor acetylhydrolase 2)	no change	no change	0.78	-0.13	inactive
SMPD3 (sphingomyelin phosphodiesterase 3)	no change	no change	-0.17	-0.92	inactive
HAS2 (hyaluronan synthase 2)	no change	no change	0.78	-0.78	inactive
GATA4 (GATA binding protein 4)	no change	no change	1.63	0.68	inactive
SELENON (selenoprotein N)	no change	no change	-0.23	-0.19	inactive
LDB3 (LIM domain binding 3)	no change	no change	-0.12	-0.7	inactive
OR4E2 (olfactory receptor family 4 subfamily E member 2)	no change	no change	0.43	0.2	inactive
IL1R1 (interleukin 1 receptor type 1)	no change	no change	-0.64	-0.58	inactive
CALY (calcyon neuron specific vesicular protein)	no change	no change	1.4	0.03	inactive
FXYD7 (FXYD domain containing ion transport regulator 7)	no change	CA1 (caspase activation)	-1.38	5.2	active
RBP5 (retinol binding protein 5)	no change	no change	1.75	-0.29	inactive
SLC12A5	no change	no change	-0.01	-0.79	inactive
